Measured values published in paper PMC10233092, “Selective Janus kinase 1 inhibition resolves inflammation and restores hair growth offering a viable treatment option for alopecia areata” (Skin Health and Disease, 2023).

Test system: IL‐4, STAT6‐Luc
Assay: IL-4-induced JAK-STAT6-luciferase assay in U937 monocytes
Format: cell-based
Settings: Homo sapiens, U-937, interleukin at EC80

With `C[C@@H]1CCN(C(=O)CC#N)C[C@@H]1N(C)c1ncnc2[nH]ccc12` [Tofacitinib, reference compound] as the compound, how does the IC50 read?
Its IC50 is 100 nM.
